Some results were stated once for a whole list of compounds, not compound by compound. Some ranges recur; such a range may be that of the whole group of compounds.
Legend:
[1] = In vitro release / retention of GM-CSF, cytokines and TLR agonists from PLG scaffolds; format: physicochemical; conditions: over the first 10 days in vitro
Procedure: To determine the incorporation efficiency of CpG-ODN incorporation, PLG scaffolds were prepared with 50 ug of CpG-ODN and digested in 1 ml of chloroform (Sigma Aldrich, and washed with 2 mls of aqueous buffer. The aqueous phase was isolated and the amount of CpG-ODN incorporated was determined by absorbance readings (260/280 and 260/230 ratios calculated at 0.2 mm pathlength) using a Nanodrop instrument, ND1000 (Nanodrop technologies, Wilmington, Del.). Similarly, to determine CpG-ODN release kinetics CpG-ODN loaded scaffolds were placed in 1 ml of Phosphate Buffer Solution (PBS) in an incubator (37° C.). At various timepoints, the PBS release media was collected and replaced with fresh media. The total amount of CpG-ODN incorporated into PLG scaffolds and released into PBS over time was analyzed and recorded.

[2] = system: B16-F10 melanoma cells; experiment: Example 7: therapeutic vaccination of established B16-F10 melanoma; conditions: mouse, in vivo

| Substance | incorporated TLR agonist released from scaffolds [1] | size of tumors that completely regressed / were eradicated [2] [mm^2] |
| --- | --- | --- |
| CpG-ODN 1826 | 20-30% | < 36 |
| monophosphoryl lipid A [MPLA] | 20-30% | – |
| polyinosinic:polycytidylic acid [P(I:C)] | 20-30% | < 36 |

— patent US10568949B2, “Method of eliciting an anti-tumor immune response with controlled delivery of TLR agonists in porous polymerlc devices” (President and Fellows of Harvard College, priority 2008, dated 2020)
